PubChem BioAssay AID686943 – Drosophila RNAi Screening Center | 2013
In all, the deposit lists about 23,000 reagents; this is a random part of those that have a named target and a result. 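Extra replicates exist only for a retested subset of genes; insulin dose and duration not given; both raised and lowered dpERK matter.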 Further read-outs or replicates are left out here. Not given: the amount of reagent, the time to read-out.

Screen: 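Knockdowns that increase or decrease active ERK after insulin receptor stimulation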 (primary screen)
System: Drosophila S2R+ haemocyte-like cells expressing YFP-tagged ERK (Rolled)
Reagent: long dsRNA against Drosophila genes
Treatment: insulin stimulation versus unstimulated cells; dose and duration not given
Read-out: 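Antibody staining for doubly phosphorylated ERK divided by ERK-YFP signal, as plate z-scores, in insulin-treated and untreated cells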
Reading the numbers: replicate 1, z-score of dpERK with insulin: higher = more active ERK per ERK-YFP after insulin

The opening 3 records as a preview:
br (broad) [DRSC17691] | replicate 1, z-score of dpERK with insulin: 0.4
br (broad) [DRSC17789] | replicate 1, z-score of dpERK with insulin: -0.79
br (broad) [DRSC18743] | replicate 1, z-score of dpERK with insulin: -1.31

Main list, from the start:
br (broad) [DRSC17691] | replicate 1, z-score of dpERK with insulin: 0.4
br (broad) [DRSC17789] | replicate 1, z-score of dpERK with insulin: -0.79
br (broad) [DRSC18743] | replicate 1, z-score of dpERK with insulin: -1.31
br (broad) [DRSC18744] | replicate 1, z-score of dpERK with insulin: -3.83
Gat (GABA transporter) [DRSC17144] | replicate 1, z-score of dpERK with insulin: -0.97
Hip1 (Huntingtin interacting protein 1) [DRSC09812] | replicate 1, z-score of dpERK with insulin: -0.38
Dh44 (Diuretic hormone 44) [DRSC12747] | replicate 1, z-score of dpERK with insulin: 0.38
Dh44 (Diuretic hormone 44) [DRSC16409] | replicate 1, z-score of dpERK with insulin: 0.55
CG17122 [DRSC10245] | replicate 1, z-score of dpERK with insulin: 0.31
CG5888 [DRSC01929] | replicate 1, z-score of dpERK with insulin: -0.57
CG8314 [DRSC07144] | replicate 1, z-score of dpERK with insulin: 0.26
Cyp28d1 (Cytochrome P450 28d1) [DRSC03298] | replicate 1, z-score of dpERK with insulin: -0.19
Cyp28d1 (Cytochrome P450 28d1) [DRSC21331] | replicate 1, z-score of dpERK with insulin: 0.59
Exo84 (Exocyst 84) [DRSC15965] | replicate 1, z-score of dpERK with insulin: -0.75
Dredd (Death related ced-3/Nedd2-like caspase) [DRSC18461] | replicate 1, z-score of dpERK with insulin: -0.35
CG8003 [DRSC10946] | replicate 1, z-score of dpERK with insulin: -0.34
CG31650 [DRSC03140] | replicate 1, z-score of dpERK with insulin: -0.9
Ir94d (Ionotropic receptor 94d) [DRSC21568] | replicate 1, z-score of dpERK with insulin: -0.28
CG15646 [DRSC19682] | replicate 1, z-score of dpERK with insulin: -0.97
CG10339 [DRSC04065] | replicate 1, z-score of dpERK with insulin: -0.13
RpL24 (Ribosomal protein L24) [DRSC03185] | replicate 1, z-score of dpERK with insulin: -2.68
Spn28Da (Serpin 28Da) [DRSC02162] | replicate 1, z-score of dpERK with insulin: -0.09
CG3014 [DRSC15458] | replicate 1, z-score of dpERK with insulin: -0.02
CG3198 [DRSC18292] | replicate 1, z-score of dpERK with insulin: -0.13
CG7607 [DRSC10889] | replicate 1, z-score of dpERK with insulin: 0.02
mip40 (Myb-interacting protein 40) [DRSC06541] | replicate 1, z-score of dpERK with insulin: 0.01
Ttc7 (Tetratricopeptide repeat domain 7) [DRSC04836] | replicate 1, z-score of dpERK with insulin: -0.36
Ak6 (Adenylate kinase 6) [DRSC07274] | replicate 1, z-score of dpERK with insulin: 0.3
Bace (beta-site APP-cleaving enzyme) [DRSC02197] | replicate 1, z-score of dpERK with insulin: -1.55
sgll (sugarlethal) [DRSC15442] | replicate 1, z-score of dpERK with insulin: -0.39
meso18E [DRSC20351] | replicate 1, z-score of dpERK with insulin: -1.19
